Experimental data reported in patent US20150150851A1, “FORMULATION AND DOSING OF HSP90 INHIBITORY COMPOUNDS” (Synta Pharmaceuticals Corp., priority 2010, published 2015).
Some results were stated once for a whole list of compounds, not compound by compound.

What follows are molecules tested on Hsp90 (assay: Degradation of Hsp90 client protein Her2 (anti-Her2-FITC FACS) via inhibition of Hsp90 activity). Conditions: Her2 staining by FACS; BT474, SK-BR-3, MCF-7 breast carcinoma cells; read-out: IC50 Range for Inhibition of Hsp90.
Type: cell-based, Human

| SMILES | IC50 |
| --- | --- |
| CCCn1ccc2c(-n3c(S)nnc3-c3cc(C4CC4)c(O)cc3O)ccc(OC)c21 [Compound 205, 3-(2,4-dihydroxy-5-cyclopropyl-phenyl)-4-(1-propyl-7-methoxy-indol-4-yl)-5-mercapto-[1,2,4] triazole] | < 3 µM |
| Oc1ccc(-c2nnc(S)n2-c2cccc3ccccc23)c(O)c1 [Compound 108, 3-(2,4-Dihydroxy-phenyl)-4-(naphthalen-1-yl)-5-mercapto-[1,2,4] triazole] | ≥ 3 µM |
| O=C(c1ccccc1)c1cccc(-n2c(S)nnc2-c2ccc(O)cc2O)c1 [Compound 64, 3-[2,4-Dihydroxy-phenyl]-4-(3-benzoylphenyl)-5-mercapto-[1,2,4] triazole] | ≥ 3 µM |
| Oc1ccc(-c2nnc(S)n2-c2ccc3c4c(cccc24)CC3)c(O)c1 [Compound 36, 3-(2,4-Dihydroxy-phenyl)-4-(acenaphthalen-5-yl)-5-mercapto-[1,2,4] triazole] | ≥ 3 µM |
| Oc1ccc(-c2nnc(S)n2-c2cccc(Cl)c2Cl)c(O)c1 [Compound 38, 3-(2,4-Dihydroxy-phenyl)-4-(2,3-dichlorophenyl)-5-mercapto-[1,2,4] triazole] | ≥ 3 µM |
| CCc1cc(-c2nnc(O)n2-c2ccc3c(c2)c(C)cn3C)c(O)cc1O [Compound 220, 3-(2,4-dihydroxy-5-ethyl-phenyl)-4-(1,3-dimethyl-indol-5-yl)-5-hydroxy-[1,2,4] triazole] | < 3 µM |
| COc1ccc(-n2c(S)nnc2-c2cc(C3CC3)c(O)cc2O)c2ccn(C(C)C)c12 [Compound 201, 3-(2,4-dihydroxy-5-cyclopropyl-phenyl)-4-(1-isopropyl-7-methoxy-indol-4-yl)-5-mercapto-[1,2,4] triazole] | < 3 µM |
| COc1ccc(-n2c(S)nnc2-c2cc(C(C)C)c(O)cc2O)c2ccn(C(C)C)c12 [Compound 208, 3-(2,4-dihydroxy-5-isopropyl-phenyl)-4-(1-isopropyl-7-methoxy-indol-4-yl)-5-mercapto-[1,2,4] triazole] | < 3 µM |
| CCc1cc(-c2nnc(S)n2-c2ccc3c(c2)c2c(n3C)CCCCCC2)c(O)cc1O [Compound 196, 3-(2,4-dihydroxy-5-ethyl-phenyl)-4-(N-methyl-cyclo-nonan[a]indol-5-yl)-5-mercapto-[1,2,4] triazole] | ≥ 3 µM |
| Oc1ccc(-c2nnc(S)n2-c2cccc3c2OCCO3)c(O)c1 [Compound 14, 3-(2,4-Dihydroxy-phenyl)-4-(2,3-dihydro-benzo [1,4]dioxin-5-yl)-5-mercapto-[1,2,4] triazole] | ≥ 3 µM |
| CCc1cc(-c2nnc(S)n2-c2ccc3c(c2)c(CC)cn3C)c(O)cc1O [Compound 206, 3-(2,4-dihydroxy-5-ethyl-phenyl)-4-(1-methyl-3-ethyl-indol-5-yl)-5-mercapto-[1,2,4] triazole] | < 3 µM |
| COc1cccc(-n2c(S)nnc2-c2ccc(O)cc2O)c1OC [Compound 93, 3-(2,4-Dihydroxy-phenyl)-4-(2,3-dimethoxy-phenyl)-5-mercapto-[1,2,4] triazole] | ≥ 3 µM |
| CCc1cc(-c2nnc(S)n2-c2ccc3c(c2)c(C(C)C)cn3C)c(O)cc1O [Compound 209, 3-(2,4-dihydroxy-5-ethyl-phenyl)-4-(1-methyl-3-isopropyl-indol-5-yl)-5-mercapto-[1,2,4] triazole] | < 3 µM |
| CN(C)C(=O)n1ccc2c(-n3c(S)nnc3-c3ccc(O)cc3O)cccc21 [Compound 183, 3-(2,4-Dihydroxy-phenyl)-4-(1-di-methylcarbamoyl-indol-4-yl)-5-mercapto-[1,2,4] triazole] | ≥ 3 µM |
| CCCCCn1ccc2c(-n3c(S)nnc3-c3cc(CC)c(O)cc3O)cccc21 [Compound 198, 3-(2,4-dihydroxy-5-ethyl-phenyl)-4-(1-n-pentyl-indol-4-yl)-5-mercapto-[1,2,4]triazole] | < 3 µM |
| CCc1cc(-c2nnc(S)n2-c2ccc3c(c2)c2c(n3C)CCCC2)c(O)cc1O [Compound 195, 3-(2,4-dihydroxy-5-ethyl-phenyl)-4-(N-methyl-tetra-hydrocarbozol-7-yl)-5-mercapto-[1,2,4] triazole] | < 3 µM |
| Cc1cn(C)c2ccc(-n3c(S)nnc3-c3cc(C4CC4)c(O)cc3O)cc12 [Compound 219, 3-(2,4-dihydroxy-5-cyclopropyl-phenyl)-4-(1,3-dimethyl-indol-5-yl)-5-mercapto-[1,2,4] triazole] | < 3 µM |
| CCc1cc(-c2nnc(S)n2-c2ccc3oc(C)nc3c2)c(O)cc1O [Compound 217, 3-(2,4-dihydroxy-5-ethyl-phenyl)-4-(2-methyl-1,3-benzoxaz-5-yl)-5-mercapto-[1,2,4] triazole] | ≥ 3 µM |
| Oc1cc(O)c(-c2nnc(S)n2-c2cccc3ccccc23)cc1O [Compound 184, 3-(2,4,5-Trihydroxy-phenyl)-4-(naphthalene-1-yl)-5-mercapto-[1,2,4] triazole] | ≥ 3 µM |
| CCc1cc(-c2nnc(S)n2-c2ccc(O)c3c2ccn3C(C)C)c(O)cc1O [Compound 211, 3-(2,4-dihydroxy-5-ethyl-phenyl)-4-(1-isopropyl-7-hydroxy-indol-4-yl)-5-mercapto-[1,2,4] triazole] | < 3 µM |

| SMILES | IC50 |
| --- | --- |
| Cc1cccc(-n2c(S)nnc2-c2ccc(O)cc2O)c1C [Compound 34, 3-(2,4-Dihydroxy-phenyl)-4-(2,3-dimethylphenyl)-5-mercapto-[1,2,4] triazole] | ≥ 3 µM |
| Cc1c(C)n(C)c2ccc(-n3c(S)nnc3-c3cc(C4CC4)c(O)cc3O)cc12 [Compound 202, 3-(2,4-dihydroxy-5-cyclopropyl-phenyl)-4-(1,2,3-trimethyl-indol-5-yl)-5-mercapto-[1,2,4] triazole] | < 3 µM |
| CCc1cc(-c2nnc(S)n2-c2ccc(OC)c3oc(C)cc23)c(O)cc1O [Compound 215, 3-(2,4-dihydroxy-5-ethyl-phenyl)-4-(2-methyl-7-methoxy-benzofuran-4-yl)-5-mercapto-[1,2,4] triazole] | < 3 µM |
| Cc1cn(C)c2ccc(-n3c(S)nnc3-c3cc(C(C)C)c(O)cc3O)cc12 [Compound 218, 3-(2,4-dihydroxy-5-isopropyl-phenyl)-4-(1,3-dimethyl-indol-5-yl)-5-mercapto-[1,2,4] triazole] | < 3 µM |
| COc1ccc(-n2c(S)nnc2-c2cc(C(C)(C)C)c(O)cc2O)c2ccn(C(C)C)c12 [Compound 204, 3-(2,4-dihydroxy-5-tert-butyl-phenyl)-4-(1-isopropyl-7-methoxy-indol-4-yl)-5-mercapto-[1,2,4] triazole] | < 3 µM |
| Cc1ccc(-n2c(S)nnc2-c2ccc(O)cc2O)c(C)c1 [Compound 28, 3-(2,4-Dihydroxy-phenyl)-4-(2,4-dimethyl-phenyl)-5-mercapto-[1,2,4] triazole] | ≥ 3 µM |
| CCc1cc(-c2nnc(S)n2-c2ccc3c(c2)cc(C)n3C)c(O)cc1O [Compound 213, 3-(2,4-dihydroxy-5-ethyl-phenyl)-4-(1,2-dimethyl-indol-5-yl)-5-mercapto-[1,2,4] triazole] | < 3 µM |
| Oc1ccc(-c2nnc(S)n2-c2ccc(Cl)c3ccccc23)c(O)c1 [Compound 48, 3-(2,4-Dihydroxy-phenyl)-4-(4-chloro-naphthalen-1-yl)-5-mercapto-[1,2,4] triazole] | ≥ 3 µM |
| CCCCc1ccc(-n2c(S)nnc2-c2ccc(O)cc2O)c(C)c1 [Compound 27, 3-(2,4-Dihydroxy-phenyl)-4-(2-methyl-4-butyl-phenyl)-5-mercapto-[1,2,4] triazole] | ≥ 3 µM |
| CC(C)c1cc(-c2nnc(S)n2-c2ccc3c(ccn3C)c2)c(O)cc1O [Compound 221, 3-(2,4-dihydroxy-5-isopropyl-phenyl)-4-(N-methyl-indol-5-yl)-5-mercapto-[1,2,4] triazole] | < 3 µM |
| COCCOc1ccc(-n2c(S)nnc2-c2ccc(O)cc2O)c2ccccc12 [Compound 2, 3-(2,4-Dihydroxy-phenyl)-4-[4-(2-methoxyethoxy)-naphthalen-1-yl]-5-mercapto-[1,2,4] triazole] | ≥ 3 µM |
| CCc1cc(-c2nnc(S)n2-c2ccc3c(c2)c(C)cn3C)c(O)cc1O [Compound 207, 3-(2,4-dihydroxy-5-ethyl-phenyl)-4-(1,3-dimethyl-indol-5-yl)-5-mercapto-[1,2,4] triazole] | < 3 µM |
| Cc1cc2cc(-n3c(S)nnc3-c3cc(C(C)C)c(O)cc3O)ccc2n1C [Compound 222, 3-(2,4-dihydroxy-5-isopropyl-phenyl)-4-(1,2-dimethyl-indol-5-yl)-5-mercapto-[1,2,4] triazole] | < 3 µM |
| CCc1cc(-c2nnc(S)n2-c2ccc3occc3c2)c(O)cc1O [Compound 216, 3-(2,4-dihydroxy-5-ethyl-phenyl)-4-(benzofuran-5-yl)-5-mercapto-[1,2,4] triazole] | < 3 µM |
| Oc1ccc(-c2nnc(O)n2-c2cccc3ccccc23)c(O)c1 [Compound 97, 3-(2,4-Dihydroxy-phenyl)-4-(naphthalen-1-yl)-5-hydroxy-[1,2,4] triazole] | ≥ 3 µM |
| CCOc1ccc(-n2c(S)nnc2-c2cc(CC)c(O)cc2O)c2ccn(C(C)C)c12 [Compound 212, 3-(2,4-dihydroxy-5-ethyl-phenyl)-4-(1-isopropyl-7-ethoxy-indol-4-yl)-5-mercapto-[1,2,4] triazole] | < 3 µM |
| CCc1cc(-c2nnc(S)n2-c2ccc3c(ccn3C)c2)c(O)cc1O [Compound 214, 3-(2,4-dihydroxy-5-ethyl-phenyl)-4-(N-methyl-indol-5-yl)-5-mercapto-[1,2,4] triazole] | < 3 µM |
| Oc1ccc(-c2nnc(S)n2-c2cccc3cnccc23)c(O)c1 [Compound 70, 3-(2,4-Dihydroxy-phenyl)-4-(isoquinolin-5-yl)-5-mercapto-[1,2,4] triazole] | ≥ 3 µM |
| CCCCn1ccc2c(-n3c(S)nnc3-c3cc(CC)c(O)cc3O)cccc21 [Compound 197, 3-(2,4-dihydroxy-5-ethyl-phenyl)-4-(1-n-butyl-indol-4-yl)-5-mercapto-[1,2,4] triazole] | < 3 µM |
| Cc1cn(C)c2ccc(-n3c(O)nnc3-c3cc(C(C)C)c(O)cc3O)cc12 [Compound 223, 3-(2,4-dihydroxy-5-isopropyl-phenyl)-4-(1,3-dimethyl-indol-5-yl)-5-hydroxy-[1,2,4] triazole] | < 3 µM |
